For at least one entry, the source does not settle the construct or the ends of the probe. For part of these data: Negatives hold for the conditions tested.
Experiments:
[1] = tested on: LXRα/RXRα heterodimer; assay: competition with a labelled probe; conditions: protein translated in vitro
[2] = tested on: LXRα/RXRα heterodimer; assay: EMSA; conditions: protein translated in vitro

“ATAAAATCTAGTTTGCTCACTC (double strand) [mutant Est DR-4]”: no binding ([1]; unlabeled mutant does not compete Est/DR-4 binding, variant of mEst DR-4).
“ATAAGGTCAAGTTTGCTCACTC (double strand) [mEst DR-4]”: binds [2].
“CTGGGGTTACTGGCGGTCACTG (double strand) [Srebp-1c DR-4 LXRE]”: binds ([1]; excess unlabeled Srebp-1c/DR-4 efficiently competes Est/DR-4 binding).

From patent US20080085879
